Data published in PubChem BioAssay AID651640 (Broad Institute, 2012).
The whole screen tested about 350,000 compounds, of which about 6,000 (1.7%) were called active. The inconclusive results got no clear call from the source; some entries with a clear call stand among them for comparison. No stated cut-off is given here; in the data, active means CPE inhibition above about 20% (passing the limit was not always enough); inconclusive means no clear call, values can overlap the other calls; tested in BHK-21 cells.

Experiment: protection of cells from dengue 2 killing – plate reader, single concentration, primary screen (AID 651640);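 further: 0% = median of neutral control wells and 100% = median of positive control wells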
Conditions: DENV2-infected cells, cytopathic effect rescue, at 9.99 µM, stronger effect = higher value

Row | Structure (SMILES) | CPE inhibition
1 | COCCNC(=S)N(CCc1c(C)[nH]c2ccc(F)cc12)Cc1ccc(C)cc1 | inactive: 5.64%
2 | CCC(CC)C(=O)Nc1nnc(S(=O)(=O)N2CCc3ccccc32)s1 | inconclusive: 25.3%
3 | CN(CCc1ccccc1)C(=O)c1[nH]c(C(F)(F)F)nc1-c1ccccc1 | inconclusive: 41.7%
4 | Cc1noc(C)c1NC(=O)N(C)C[C@H]1Oc2ccc(NC(=O)Cc3ccccc3)cc2CC(=O)N([C@@H](C)CO)C[C@H]1C | active: 54.4%
5 | CCCC(=O)N1CC2(CCN(C)CC2)c2c(n(C)c3cc(OC)ccc23)[C@@H]1CO | active: 63.7%
6 | CCCCC(=O)N(C)c1c(CC)nc2c(OCC(N)=O)cccn12 | inconclusive: 54.6%
7 | COc1ccccc1CCC(=O)N1CCC(n2nccc2NC(=O)CC(C)C)CC1 | inconclusive: 29.7%
8 | COC(=O)c1ccc(NC(=O)C2CC3CCC2C3)cc1 (configuration not stated) | active: 47.5%
9 | O=C(C[C@@H]1CC[C@@H]2[C@H](COC[C@H](O)CN2Cc2ccncc2)O1)NCC1CC1 | inactive: -2.36%
10 | Cc1nn(Cc2ccccc2)c(C)c1CNC(=O)[C@H](C)N=C1NS(=O)(=O)c2ccccc21 | inconclusive: 34.9%
11 | CCN1CCN(Cc2ccc(NC(=O)c3ccc(C)c(NC(=O)c4cccc5[nH]ccc45)c3)cc2C(F)(F)F)CC1 | inconclusive: 21.3%
12 | CC(C)Nc1nnc(SCC(=O)N2CCN(C(=O)c3ccco3)CC2)s1 | inconclusive: 84.9%
13 | CCCCNc1ccc(C(=O)OCCN(C)C)cc1 | inconclusive: 36.8%
14 | COC(=O)C1=C(O)/C(=C\c2ccc(OCC(=O)Nc3ccccc3)cc2)N=C1C | inactive: 2.13%
15 | C[C@@H]1CCCCO[C@@H](CN(C)Cc2ccc(C(=O)O)cc2)[C@@H](C)CN([C@H](C)CO)C(=O)c2cc(NC(=O)C3CCCCC3)ccc2O1 | inconclusive: 35.2%
16 | CC(C)CC#Cc1ccc2c(c1)O[C@@H](CN(C)S(=O)(=O)c1cccc(F)c1)[C@H](C)CN([C@H](C)CO)S2(=O)=O | inactive: -0.846%
17 | CN(C)C(CNC(=O)c1ccc(NS(=O)(=O)c2ccc3[nH]c(=O)[nH]c3c2)cc1)c1ccccc1 (configuration not stated) | inconclusive: 25.7%
18 | COc1ccc(S(=O)(=O)N(C)C[C@@H]2Oc3ccc(NC(=O)Nc4ccccc4)cc3C(=O)N([C@@H](C)CO)C[C@H]2C)cc1 | active: 35.4%
19 | Cc1cccc(C)c1NC(=O)c1cnn(-c2ccccc2)c1C | inconclusive: 35.6%
20 | CCN(C(=O)COC(=O)CCC(=O)c1ccc(C)cc1)c1c(N)n(Cc2ccccc2)c(=O)[nH]c1=O | inconclusive: 59.2%
21 | CC(C)C#Cc1ccc([C@H]2[C@@H](CO)N3C(=O)CN(C(=O)C4CCCCC4)C[C@@H]23)cc1 | inconclusive: 23.4%
22 | O=C(c1ccccc1F)N1C[C@@H]2[C@H](c3ccccc31)[C@@H](CO)N2C(=O)c1cccnc1 | inconclusive: 20.2%
23 | O=C(O)/C=C/C(=O)Nc1cccc(C(F)(F)F)c1 | inconclusive: 22.8%
24 | Cc1nnc(SCC(=O)N2CCN(c3ccccc3)CC2)n1C1CC1 | inconclusive: 25%

2 records drawn at random from the list so far, as already listed:
Row | Structure (SMILES) | CPE inhibition
15 | C[C@@H]1CCCCO[C@@H](CN(C)Cc2ccc(C(=O)O)cc2)[C@@H](C)CN([C@H](C)CO)C(=O)c2cc(NC(=O)C3CCCCC3)ccc2O1 | inconclusive: 35.2%
3 | CN(CCc1ccccc1)C(=O)c1[nH]c(C(F)(F)F)nc1-c1ccccc1 | inconclusive: 41.7%

Later entries:

Row | Structure (SMILES) | CPE inhibition
25 | COc1ccc(OC)c(NC(=O)CSc2nnc(NC(=O)c3ccco3)s2)c1 | inconclusive: 20.5%
26 | O=C(NC1CCCCC1)[C@@H]1[C@@H](CO)[C@@H]2Cn3c(cccc3=O)[C@H]1N2CC1CCCCC1 | inconclusive: 25.2%
27 | C[C@@H]1CN([C@H](C)CO)C(=O)c2cccc(NC(=O)c3ccncc3)c2O[C@H]1CN(C)C(=O)Nc1ccc(C(F)(F)F)cc1 | inactive: -7.69%
28 | OCC[n+]1ccc(/C=C/c2c[nH]c3ccccc23)cc1 | inconclusive: 32.8%
29 | C[C@@H]1CCCCO[C@H](CN(C)C(=O)Nc2ccc(C(F)(F)F)cc2)[C@@H](C)CN([C@H](C)CO)C(=O)c2cc(NC(=O)Nc3cccc4ccccc34)ccc2O1 | inconclusive: 31.1%
30 | C[C@H](CO)N1C[C@H](C)[C@H](CN(C)S(=O)(=O)c2cccc(C#N)c2)OCc2cnnn2CCCC1=O | inconclusive: 34.7%
31 | COc1ccc(CCNc2ncnc3nc[nH]c23)cc1OC | inconclusive: 26.5%
32 | O=C(Cc1ccc(Cl)cc1)Nc1ccccc1N1CCN(C(=O)c2ccccc2)CC1 | inconclusive: 22.4%
33 | CC(=O)c1ccc(NC(=O)CSc2nc3nn(-c4ccccc4)c(=O)c-3c3n2CCCCC3)cc1 | inconclusive: 25.2%
34 | C[C@@H]1CN([C@H](C)CO)C(=O)c2cc(C3=CCCC3)cnc2O[C@@H]1CN(C)C(=O)Nc1ccc(C(F)(F)F)cc1 | active: 32.7%
35 | C[C@@H]1CN([C@H](C)CO)C(=O)c2c(c3ccccc3n2C)-c2ccccc2CO[C@@H]1CN(C)Cc1ccc2c(c1)OCO2 | inactive: 2.49%
36 | Cc1c(C(=O)Nc2ccccc2F)sc2ncn(CC(=O)N3CCOCC3)c(=O)c12 | active: 52.1%
37 | CC(C)(C)C(C(=O)NC1CCCC1)N1CCN(c2ncccc2C#N)CC1 (configuration not stated) | inconclusive: 22.4%
38 | CCCCc1nc2cc(C(=O)NCc3cn(C)nc3C)ccc2o1 | active: 47.3%
39 | CCC(=O)Nc1ccc2c(c1)C(=O)N(C)C[C@H](OC)[C@H](C)CN(Cc1ccccc1OC)[C@@H](C)CO2 | active: 22.4%
40 | O=S(=O)(NCC(c1cccnc1)N1CCN(c2ccccc2F)CC1)c1cccs1 (configuration not stated) | inconclusive: 20.4%
41 | C[C@@H]1CCCCO[C@@H](CN(C)CC2CCCCC2)[C@H](C)CN([C@H](C)CO)C(=O)c2cc(NS(C)(=O)=O)ccc2O1 | inconclusive: 29.7%
42 | CCOc1cc(C(=O)NC(C)C2CC3CCC2C3)cc(OCC)c1OCC (configuration not stated) | inconclusive: 26.7%
43 | C[C@@H]1CN([C@H](C)CO)C(=O)c2cccc(NC(=O)c3ccncc3)c2O[C@H]1CN(C)S(=O)(=O)c1ccc(Cl)cc1 | inactive: 6.85%
44 | CNC[C@@H]1OCCCC[C@@H](C)Oc2ccc(NS(=O)(=O)c3c(C)noc3C)cc2C(=O)N([C@@H](C)CO)C[C@H]1C | active: 28.7%
45 | OCC[C@H]1C[C@H](O)[C@@H](O)[C@@]2(OCCCc3ccccc32)O1 | inconclusive: 32.8%
46 | CC(C)NC(=O)N(C)C[C@H]1Oc2ccc(NC(=O)CCC(F)(F)F)cc2CC(=O)N([C@@H](C)CO)C[C@H]1C | inactive: 3.63%
47 | O=C(C[C@@H]1CC[C@H]2[C@@H](COC[C@H](O)CN2S(=O)(=O)c2cccc(Cl)c2)O1)Nc1ccc(-c2ccccc2)cc1 | inconclusive: 34.3%
48 | O=C(C[C@@H]1C=C[C@H](NC(=O)C2CCC2)[C@H](CO)O1)NCCCN1CCOCC1 | inactive: 1.21%

Row | Structure (SMILES) | CPE inhibition
49 | Cc1nn(C)c(N)c1[N+](=O)[O-] | inactive: -1.87%
50 | Cc1c(OCC(=O)NCc2ccccn2)ccc2c3c(c(=O)oc12)CCCC3 | inactive: 4.09%
51 | C[C@@H]1CN([C@@H](C)CO)C(=O)c2cc(NC(=O)Nc3ccc(C(F)(F)F)cc3)ccc2O[C@@H](C)CCCCO[C@@H]1CN(C)C(=O)NC1CCCCC1 | active: 59.6%
52 | Cc1ccc(S(=O)(=O)N(C)C)cc1NC(=O)C(C)OC(=O)c1cc[n+]([O-])cc1 (configuration not stated) | inconclusive: 21.4%
53 | COc1ccc(NC(=O)N(C)C[C@H]2Oc3ccc(NS(=O)(=O)c4ccc(Cl)cc4)cc3C(=O)N([C@@H](C)CO)C[C@@H]2C)cc1 | inactive: 16.2%
54 | Cc1cccc(OCc2nc(-c3ccc(-n4cccc4)cc3)no2)c1 | inactive: 5.64%
55 | Cc1cccc(N(C)c2cc(C)nc3nc(C)nn23)c1 | active: 28.7%
56 | CN(C)CCCNC(=O)C[C@H]1CC[C@H]2[C@@H](COC[C@H](O)CN2CC2CCCCC2)O1 | inconclusive: 53.2%
57 | C[C@@H]1CN([C@H](C)CO)C(=O)c2cc(/C=C/c3ccccc3)cnc2O[C@H]1CN(C)Cc1cccnc1 | inactive: -7.4%
58 | O=S(=O)(CS(=O)(=O)Oc1ccccc1)Oc1ccccc1 | active: 23.5%
59 | O=C(CCN1C(=O)/C(=C/c2cccs2)SC1=S)Nc1ccccc1O | inactive: -1.16%
60 | CCn1ccnc1CN1CCCCC1C(=O)Nc1ccc(Oc2cccnc2)cc1 (configuration not stated) | inconclusive: 36.6%
61 | O=C(C[C@H]1CC[C@H]2[C@@H](COC[C@H](O)CN2C(=O)Nc2ccc(F)cc2)O1)NC1Cc2ccccc2C1 | active: 43.1%
62 | N#Cc1cnn(-c2ccccc2)c1NC(=O)c1ccccc1F | inconclusive: 36.6%
63 | Cc1cc(/C=C2\SC(=O)NC2=O)c(C)n1-c1ccc(N2CCOCC2)cc1 | inactive: 4.1%
64 | COc1ccc(OCC(O)CNC(=O)c2ccc(C)cc2)cc1 (configuration not stated) | inactive: 13.9%
65 | CC(SC(=S)N1CCCC1)C(=O)O (configuration not stated) | inactive: -0.34%
66 | O=C(Cc1ccccc1)N1CC[C@H]2[C@H](CO)Nc3ccc(C4=CCCCC4)cc3[C@H]21 | inconclusive: 20.5%
67 | CCOC(=O)C1=C(C)N(c2ccc(C)cc2)C(=O)/C1=C\c1ccc(O)c(OC)c1 | inconclusive: 25.2%
68 | COc1ccc(NC(=O)N[C@@H]2CC[C@@H](CCNS(=O)(=O)c3cccc(Cl)c3)O[C@@H]2CO)cc1 | active: 114%
69 | Cc1noc(C)c1S(=O)(=O)N(C)C[C@H]1OCCCC[C@@H](C)Oc2ccc(NS(=O)(=O)c3cn(C)cn3)cc2C(=O)N([C@H](C)CO)C[C@@H]1C | inconclusive: 20.2%
70 | O=C(CC(F)(F)F)N1C[C@@H]2[C@H](c3ccccc31)[C@@H](CO)N2C(=O)CN1CCOCC1 | active: 52.7%
71 | COc1cccc(/C=N/NC(=O)CCc2ccccc2)c1 | inactive: 1.01%
72 | Cc1ccc(S(=O)(=O)N2[C@@H](c3ccccc3)C(C(=O)O)=CC[C@H]2c2cccc(Cl)c2)cc1 | inconclusive: 76.3%

Part of the list above, as labelled records.
CC(=O)c1ccc(NC(=O)CSc2nc3nn(-c4ccccc4)c(=O)c-3c3n2CCCCC3)cc1
  CPE inhibition: inconclusive: 25.2%
C[C@@H]1CN([C@H](C)CO)C(=O)c2cc(C3=CCCC3)cnc2O[C@@H]1CN(C)C(=O)Nc1ccc(C(F)(F)F)cc1
  CPE inhibition: active: 32.7%
